The results in this text go back to US20210002330A1 (ASOCIACI N CENTRO DE INVESTIGACI N COOPERATIVA EN …, published 2021).

Test [1] has as its target T1, fluorescein-labeled Hsp90 peptide (fluorescein label (position not given)).
T1 construct: also called target peptide; C-terminal peptide of Hsp90
T1 peptide: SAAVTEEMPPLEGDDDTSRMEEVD
The test is described as follows: fluorescence anisotropy; protein titrated into 50 nM fluorescein-labeled Hsp90 peptide. The protocol:
(§1) In addition, the ligand binding activity of the tested proteins was studied by using CC1-CTPR390, CC1-TPR2A, CC1-TPR2A_T332R_D334K proteins and its target peptide. […] Fluorescence intensities were recorded in a Perkin Elmer Fluorimeter equipped with excitation and emission polarizers. Excitation was accomplished with a 5 nm slit width at 492 nm and the emission recorded at 516 nm with slit width of 5 nm. […]
(In general: Fluorescence polarisation rises when a labelled molecule tumbles more slowly, as on binding a larger partner.)

Test [2] has as its target T1, fluorescein-labeled Hsp90 peptide. The test is described as follows: fluorescence anisotropy with fluorescein-labeled Hsp90 peptide; protein-stabilised gold nanocluster complex. The protocol: as §1
Finally, fluorescence anisotropy was used to monitor the interaction between the CC1-CTPR390-AuNCs, CC1-TPR2A-AuNCs and CC1-TPR2A_T332R_D334K-AuNCs complexes and a fluorescein-labeled Hsp90 peptide to determine the corresponding Kd value.

B1: CC1-TPR2A (designed binder)
chain: AEAWCNLGCAYYKQGDYDEAIEYYQKALELDPRSACAWYCLGNAYYKQGDYDEAIEYYQKALELDPRSALAEKNLGNAYYKQKDFDTALKHYDKAKELDPTNMTYITNQAAVYFEKGDYNKCRELCEKAIEVGRENREDYRQIAKAYARIGNSYFKEEKYKDAIHFYNKSLAEHRTPDVLKKCQQAEKILKEQ
notes: CC1 Cys-clamp module fused to the Hsp90 recognition domain TPR2A
The Kd is the free concentration of one partner at which half of the binding sites on the other are occupied at equilibrium, for simple one-to-one binding. In test [1], B1 showed a Kd of 5000 nM. This counts as single-digit micromolar.

B2: CC1-TPR2A-AuNCs (designed binder)
chain: AEAWCNLGCAYYKQGDYDEAIEYYQKALELDPRSACAWYCLGNAYYKQGDYDEAIEYYQKALELDPRSALAEKNLGNAYYKQKDFDTALKHYDKAKELDPTNMTYITNQAAVYFEKGDYNKCRELCEKAIEVGRENREDYRQIAKAYARIGNSYFKEEKYKDAIHFYNKSLAEHRTPDVLKKCQQAEKILKEQ
modifications: gold nanocluster (AuNC) stabilised on the protein (CC1 4-Cys clamp)
Molecule B2 showed a Kd in test [2] of around 5000 nM.

B3: CC1-TPR2A_T332R_D334K-AuNCs (designed binder)
chain: AEAWCNLGCAYYKQGDYDEAIEYYQKALELDPRSACAWYCLGNAYYKQGDYDEAIEYYQKALELDPRSALAEKNLGNAYYKQKDFDTALKHYDKAKELDPTNMTYITNQAAVYFEKGDYNKCRELCEKAIEVGRENREDYRQIAKAYARIGNSYFKEEKYKDAIHFYNKSLAEHRRPKVLKKCQQAEKILKEQ
modifications: gold nanocluster (AuNC) stabilised on the protein (CC1 4-Cys clamp)
As for B3, the Kd in test [2] is around 55 nM.

B4: CC1-TPR2A_T332R_D334K (designed binder)
chain: AEAWCNLGCAYYKQGDYDEAIEYYQKALELDPRSACAWYCLGNAYYKQGDYDEAIEYYQKALELDPRSALAEKNLGNAYYKQKDFDTALKHYDKAKELDPTNMTYITNQAAVYFEKGDYNKCRELCEKAIEVGRENREDYRQIAKAYARIGNSYFKEEKYKDAIHFYNKSLAEHRRPKVLKKCQQAEKILKEQ
In turn, B4 returned a Kd in test [1] of 55 nM. In other words, the double-digit nanomolar range.
